Test results published in patent publication US20260193311A1, “METHODS AND COMPOSITIONS FOR STIMULATION OF CHIMERIC ANTIGEN RECEPTOR T CELLS WITH HAPTEN LABELLED CELLS” (Seattle Children's Hospital (dba Seattle Children's …, priority 2018, published 2026).
Some of these results come from one statement about several compounds together. For at least one compound, name, drawing or mass did not settle the structure.

Key:
U87 cells = test: cell surface retention of tethered hapten by flow cytometry; type: cell-based; conditions: 5 μM overnight, washed, cultured in fresh media up to 4 days
Be2 cells = test: as above; type: cell-based; conditions: 5 μM overnight, washed, cultured in fresh media up to 4 days

`CCCCCCCCCCCCCCCC(=O)OCC(COP(=O)(O)OCCNC(=S)Nc1ccc2c(c1)C(=O)OC21c2ccc(O)cc2Oc2cc(O)ccc21)OC(=O)CCCCCCCCCCCCCCC` (centres unmarked) [FL-DHPE, N-(Fluorescein-5-Thiocarbamoyl)-1,2-Dihexadecanoyl-sn-Glycero-3-Phosphoethanolamine] was tested, and the “period over which cells retained FL” value (U87 cells) was “at least 4 days” and the “period over which cells retained FL” value (Be2 cells) was “at least 4 days”.
